{
  "sequences": {"note": "Amino acid sequences for entries named in this document (tags omitted). A change or cut given only in a name is not applied to a line headed by its entry.", "UniProt Q8WZ75": "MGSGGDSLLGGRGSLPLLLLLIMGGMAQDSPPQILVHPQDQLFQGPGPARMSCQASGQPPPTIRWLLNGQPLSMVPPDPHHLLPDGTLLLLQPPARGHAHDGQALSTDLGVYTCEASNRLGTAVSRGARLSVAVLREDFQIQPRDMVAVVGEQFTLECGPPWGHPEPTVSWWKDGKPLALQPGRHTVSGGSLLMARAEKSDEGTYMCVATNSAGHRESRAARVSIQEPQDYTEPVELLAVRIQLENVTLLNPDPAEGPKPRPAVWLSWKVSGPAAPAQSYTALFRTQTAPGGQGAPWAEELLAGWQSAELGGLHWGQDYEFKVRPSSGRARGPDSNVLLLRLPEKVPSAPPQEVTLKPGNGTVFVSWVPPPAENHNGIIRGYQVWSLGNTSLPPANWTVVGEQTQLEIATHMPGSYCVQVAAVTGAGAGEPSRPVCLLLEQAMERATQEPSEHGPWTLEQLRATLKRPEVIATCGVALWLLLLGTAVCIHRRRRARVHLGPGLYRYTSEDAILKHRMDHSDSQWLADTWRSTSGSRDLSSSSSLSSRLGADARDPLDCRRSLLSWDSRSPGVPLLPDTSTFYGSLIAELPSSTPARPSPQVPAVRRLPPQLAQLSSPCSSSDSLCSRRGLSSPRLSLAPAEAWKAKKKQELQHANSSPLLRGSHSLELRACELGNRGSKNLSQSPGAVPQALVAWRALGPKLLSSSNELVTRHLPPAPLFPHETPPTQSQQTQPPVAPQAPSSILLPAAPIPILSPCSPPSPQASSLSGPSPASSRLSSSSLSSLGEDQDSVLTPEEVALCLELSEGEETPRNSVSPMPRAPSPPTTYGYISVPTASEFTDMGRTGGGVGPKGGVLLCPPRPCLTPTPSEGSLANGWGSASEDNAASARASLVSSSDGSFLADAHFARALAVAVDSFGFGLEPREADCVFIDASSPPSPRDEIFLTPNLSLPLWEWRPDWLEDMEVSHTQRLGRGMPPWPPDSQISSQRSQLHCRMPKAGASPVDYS"},
  "source": "patent JP2014141434A",
  "molecular_target": "T1, N末端FLAG−tag付加型ヒトROBO4細胞外領域ドメイン欠損体 hROBO4−46 (human) (UniProt Q8WZ75)",
  "T1 sequence": "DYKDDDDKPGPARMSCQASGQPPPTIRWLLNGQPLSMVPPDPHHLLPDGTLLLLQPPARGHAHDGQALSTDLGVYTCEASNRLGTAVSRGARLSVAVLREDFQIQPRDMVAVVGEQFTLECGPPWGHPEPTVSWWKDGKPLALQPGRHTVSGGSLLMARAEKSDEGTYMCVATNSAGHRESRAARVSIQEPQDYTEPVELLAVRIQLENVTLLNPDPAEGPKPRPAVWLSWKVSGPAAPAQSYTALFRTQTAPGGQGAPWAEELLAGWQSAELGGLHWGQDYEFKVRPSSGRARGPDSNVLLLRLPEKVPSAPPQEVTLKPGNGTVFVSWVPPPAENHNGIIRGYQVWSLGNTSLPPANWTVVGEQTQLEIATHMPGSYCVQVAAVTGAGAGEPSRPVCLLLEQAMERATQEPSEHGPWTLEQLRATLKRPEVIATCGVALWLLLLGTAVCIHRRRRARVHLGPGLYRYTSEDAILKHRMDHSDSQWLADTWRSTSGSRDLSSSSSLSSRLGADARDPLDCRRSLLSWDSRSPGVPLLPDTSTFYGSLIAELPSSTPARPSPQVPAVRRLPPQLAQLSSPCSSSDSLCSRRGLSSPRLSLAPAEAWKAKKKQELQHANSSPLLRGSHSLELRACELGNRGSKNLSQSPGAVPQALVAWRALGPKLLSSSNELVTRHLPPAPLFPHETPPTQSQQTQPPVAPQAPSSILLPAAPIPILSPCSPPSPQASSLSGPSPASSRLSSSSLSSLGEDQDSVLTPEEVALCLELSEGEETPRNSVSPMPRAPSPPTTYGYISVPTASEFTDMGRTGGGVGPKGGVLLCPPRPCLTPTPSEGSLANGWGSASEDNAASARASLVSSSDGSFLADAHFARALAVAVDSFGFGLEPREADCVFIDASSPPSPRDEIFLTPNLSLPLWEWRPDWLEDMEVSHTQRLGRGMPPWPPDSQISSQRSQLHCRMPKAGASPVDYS",
  "assay": "flow cytometry, transfected HEK293 cells, 10 μg/mL",
  "note": "No constants are given. Whether binding was seen depends on the method and setting. Some binding calls cover weakened binding; strength is not graded here.",
  "data": [
    {"binder": "抗ROBO4マウスモノクローナル抗体 MAb1 (antibody, V domains shown) VH: EVQLVESGGGLVKPGGSLKLSCAASGFTFSTYAMSWVRQTPEKRLEWVATISNGGTYTYYPDSVKGRFTISRDNAENTLYLQMSSLRSEDTAMYFCARLIYYDYLDYWGHGTTLTVSS VL: DAVMTQTPLSLPVSLGDQASISCRSSQSLENSNGNTYLNWYFQKPGQSPQLLIYRVSNRFSGVLDRFSGSGSGTDFTLKISRVEAEDFGVYFCLQVTHVPWTFGGGTKLEIKR", "values": [
      {"measurement": "binding", "value": "binds"}
    ]}
  ]
}
